In US8815877B2, “Serine/threonine kinase inhibitors” (Genentech, Inc., priority 2011, dated 2014):
Some results were stated once for a whole list of compounds, not compound by compound.

Sequences of proteins named here, by UniProt entry; tags and fusion partners are left off. Residues count along the entry.
UniProt Q13153, 249-545: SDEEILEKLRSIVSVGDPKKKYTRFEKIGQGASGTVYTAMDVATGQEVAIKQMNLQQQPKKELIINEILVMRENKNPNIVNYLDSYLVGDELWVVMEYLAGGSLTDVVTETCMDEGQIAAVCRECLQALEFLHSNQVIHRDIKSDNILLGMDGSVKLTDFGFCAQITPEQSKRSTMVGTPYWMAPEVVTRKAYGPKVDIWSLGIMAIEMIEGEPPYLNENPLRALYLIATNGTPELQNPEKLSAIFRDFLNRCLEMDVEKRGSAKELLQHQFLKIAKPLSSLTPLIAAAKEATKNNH

Target: T1, human recombinant GST-PAK1-KD protein (Homo sapiens, UniProt Q13153)
T1 construct: residues #249-545 of human PAK1, UniProtKP/Swiss Q13153; made in house; host or cells: Sf9 insect cells (pAcGP67 baculovirus expression vector)
Assay: GST-PAK1-KD (Kinase Domain) IC50 biochemical assay (microfluidic mobility shift)
Conditions: PAK1 inhibition assay; units nM and μM printed within the value
Experimental: GST-PAK1-KD (Kinase Domain) IC50 Biochemical Assay Protocol
Activity of human recombinant GST-PAK1-KD protein was assessed in vitro assay by observing the phosphorylation of a fluorogenic peptide substrate.
The peptide substrate is a consensus sequence based on various PAK1 substrates reported in the scientific literature. […] Incubations were carried out at 22° C. in MatriCal MP101 384-well Metriplates™. […] Following the 30-minute incubation, the assay mixtures were quenched by the addition of 3 μL of 250 mM EDTA, and the substrate and phosphorylated product were separated by capillary electrophoresis and detected using LabChip® Caliper 3000 (Caliper Life Sciences).

## c1cc(Nc2cc(C3CC3)[nH]n2)nc(NCc2cncc3[nH]ccc23)n1 [Compound I-1, N^2-((1H-Pyrrolo[2,3-c]pyridin-4-yl)methyl)-N^4-(5-cyclopropyl-1H-pyrazol-3-yl)pyrimidine-2,4-diamine]
  range of PAK binding activities: less than 1 nM (nanomolar) to about 10 μM (micromolar)

## c1cc(Nc2cc(C3CC3)[nH]n2)nc(NCc2ccnc3[nH]ccc23)n1 [Compound I-2, N^2-((1H-pyrrolo[2,3-b]pyridin-4-yl)methyl)-N^4-(5-cyclopropyl-1H-pyrazol-3-yl)pyrimidine-2,4-diamine]
  range of PAK binding activities: less than 1 nM (nanomolar) to about 10 μM (micromolar)

## c1cc(Nc2cc(C3CC3)[nH]n2)nc(NCc2nccc3[nH]ccc23)n1 [Compound I-3, N^2-((1H-pyrrolo[3,2-c]pyridin-4-yl)methyl)-N^4-(5-cyclopropyl-1H-pyrazol-3-yl)pyrimidine-2,4-diamine]
  range of PAK binding activities: less than 1 nM (nanomolar) to about 10 μM (micromolar)

## C[C@H](Nc1nccc(Nc2cc(C3CC3)[nH]n2)n1)c1nccc2[nH]ccc12 [Compound I-4, N^2-((S)-1-(1H-pyrrolo[3,2-c]pyridin-4-yl)ethyl)-N^4-(5-cyclopropyl-1H-pyrazol-3-yl)pyrimidine-2,4-diamine]
  range of PAK binding activities: less than 1 nM (nanomolar) to about 10 μM (micromolar)

## C[C@@H](Nc1nccc(Nc2cc(C3CC3)[nH]n2)n1)c1nccc2[nH]ccc12 [Compound I-5, N^2-((R)-1-(1H-pyrrolo[3,2-c]pyridin-4-yl)ethyl)-N^4-(5-cyclopropyl-1H-pyrazol-3-yl)pyrimidine-2,4-diamine]
  range of PAK binding activities: less than 1 nM (nanomolar) to about 10 μM (micromolar)

## c1cc(Nc2cc(C3CC3)[nH]n2)nc(NCc2cnc3[nH]ccc3c2)n1 [Compound I-6, N^2-((1H-Pyrrolo[2,3-b]pyridin-5-yl)methyl)-N^4-(5-cyclopropyl-1H-pyrazol-3-yl)pyrimidine-2,4-diamine]
  range of PAK binding activities: less than 1 nM (nanomolar) to about 10 μM (micromolar)

## CN(Cc1ccc2[nH]ccc2n1)c1nccc(Nc2cc(C3CC3)[nH]n2)n1 [Compound I-10, N^2-((1H-pyrrolo[3,2-b]pyridin-5-yl)methyl)-N^4-(5-cyclopropyl-1H-pyrazol-3-yl)-N^2-methylpyrimidine-2,4-diamine]
  range of PAK binding activities: less than 1 nM (nanomolar) to about 10 μM (micromolar)

## C[C@H](Nc1ncc(F)c(Nc2cc(C3CC3)[nH]n2)n1)c1ccc2[nH]ccc2n1 [Compound I-14, (S)—N^2-(1-(1H-pyrrolo[3,2-b]pyridin-5-yl)ethyl)-N^4-(5-cyclopropyl-1H-pyrazol-3-yl)-5-fluoropyrimidine-2,4-diamine]
  range of PAK binding activities: less than 1 nM (nanomolar) to about 10 μM (micromolar)

## C[C@@H](Nc1ncc(F)c(Nc2cc(C3CC3)[nH]n2)n1)c1ccc2[nH]ccc2n1 [Compound I-15, (R)—N^2-(1-(1H-pyrrolo[3,2-b]pyridin-5-yl)ethyl)-N^4-(5-cyclopropyl-1H-pyrazol-3-yl)-5-fluoropyrimidine-2,4-diamine]
  range of PAK binding activities: less than 1 nM (nanomolar) to about 10 μM (micromolar)

## C[C@@H](c1ccc2[nH]ccc2n1)N(C)c1ncc(F)c(Nc2cc(C3CC3)[nH]n2)n1 [Compound I-20, (S)—N^2-(1-(1H-pyrrolo[3,2-b]pyridin-5-yl)ethyl)-N^4-(5-cyclopropyl-1H-pyrazol-3-yl)-5-fluoro-N^2-methylpyrimidine-2,4-diamine]
  range of PAK binding activities: less than 1 nM (nanomolar) to about 10 μM (micromolar)

## C[C@H](c1ccc2[nH]ccc2n1)N(C)c1ncc(F)c(Nc2cc(C3CC3)[nH]n2)n1 [Compound I-21, (R)—N^2-(1-(1H-pyrrolo[3,2-b]pyridin-5-yl)ethyl)-N^4-(5-cyclopropyl-1H-pyrazol-3-yl)-5-fluoro-N^2-methylpyrimidine-2,4-diamine]
  range of PAK binding activities: less than 1 nM (nanomolar) to about 10 μM (micromolar)

## C[C@@H](c1ccc2[nH]ccc2n1)N(C)c1nccc(Nc2cc([C@H]3C[C@H]3F)[nH]n2)n1 [Compound I-22, N^2-((S)-1-(1H-pynolo[3,2-b]pyridin-5-yl)ethyl)-N^4-(5-((1R,2R)-2-fluorocyclopropyl)-1H-pyrazol-3-yl)-N^2-methylpyrimidine-2,4-diamine]
  range of PAK binding activities: less than 1 nM (nanomolar) to about 10 μM (micromolar)

## C[C@H](c1ccc2[nH]ccc2n1)N(C)c1nccc(Nc2cc([C@H]3C[C@H]3F)[nH]n2)n1 [Compound I-23, N^2-((R)-1-(1H-pyrrolo[3,2-b]pyridin-5-yl)ethyl)-N^4-(5-((1R,2R)-2-fluorocyclopropyl)-1H-pyrazol-3-yl)-N^2-methylpyrimidine-2,4-diamine]
  range of PAK binding activities: less than 1 nM (nanomolar) to about 10 μM (micromolar)

## C[C@@H](c1ccc2[nH]ccc2n1)N(C)c1nccc(Nc2cc([C@@H]3C[C@@H]3F)[nH]n2)n1 [Compound I-24, N^2-((S)-1-(1H-pyrrolo[3,2-b]pyridin-5-yl)ethyl)-N^4-(5-((1S,2S)-2-fluorocyclopropyl)-1H-pyrazol-3-yl)-N^2-methylpyrimidine-2,4-diamine]
  range of PAK binding activities: less than 1 nM (nanomolar) to about 10 μM (micromolar)

## C[C@H](c1ccc2[nH]ccc2n1)N(C)c1nccc(Nc2cc([C@@H]3C[C@@H]3F)[nH]n2)n1 [Compound I-25, N^2-((R)-1-(1H-pyrrolo[3,2-b]pyridin-5-yl)ethyl)-N^4-(5-((1S,2S)-2-fluorocyclopropyl)-1H-pyrazol-3-yl)-N^2-methylpyrimidine-2,4-diamine]
  range of PAK binding activities: less than 1 nM (nanomolar) to about 10 μM (micromolar)

## C[C@@H](c1ccc2[nH]ccc2n1)N(C)c1nccc(Nc2cc([C@@H]3C[C@H]3F)[nH]n2)n1 [Compound I-26, N^2—((S)-1-(1H-pyrrolo[3,2-b]pyridin-5-yl)ethyl)-N^4-(5-((1S,2R)-2-fluorocyclopropyl)-1H-pyrazol-3-yl)-N^2-methylpyrimidine-2,4-diamine]
  range of PAK binding activities: less than 1 nM (nanomolar) to about 10 μM (micromolar)

## C[C@H](c1ccc2[nH]ccc2n1)N(C)c1nccc(Nc2cc([C@@H]3C[C@H]3F)[nH]n2)n1 [Compound I-27, N^2-((R)-1-(1H-pyrrolo[3,2-b]pyridin-5-yl)ethyl)-N^4-(5-((1S,2R)-2-fluorocyclopropyl)-1H-pyrazol-3-yl)-N^2-methylpyrimidine-2,4-diamine]
  range of PAK binding activities: less than 1 nM (nanomolar) to about 10 μM (micromolar)

## C[C@@H](c1ccc2[nH]ccc2n1)N(C)c1nccc(Nc2cc([C@H]3C[C@@H]3F)[nH]n2)n1 [Compound I-28, N^2—((S)-1-(1H-pyrrolo[3,2-b]pyridin-5-yl)ethyl)-N^4-(5-((1R,2S)-2-fluorocyclopropyl)-1H-pyrazol-3-yl)-N^2-methylpyrimidine-2,4-diamine]
  range of PAK binding activities: less than 1 nM (nanomolar) to about 10 μM (micromolar)

## C[C@H](c1ccc2[nH]ccc2n1)N(C)c1nccc(Nc2cc([C@H]3C[C@@H]3F)[nH]n2)n1 [Compound I-29, N^2—((R)-1-(1H-pyrrolo[3,2-b]pyridin-5-yl)ethyl)-N^4-(5-((1R,2S)-2-fluorocyclopropyl)-1H-pyrazol-3-yl)-N^2-methylpyrimidine-2,4-diamine]
  range of PAK binding activities: less than 1 nM (nanomolar) to about 10 μM (micromolar)

## c1cc(Nc2cc(C3CC3)[nH]n2)nc(NCc2cncc3[nH]cnc23)n1 [Compound I-33, N^2-((3H-imidazo[4,5-c]pyridin-7-yl)methyl)-N^4-(5-cyclopropyl-1H-pyrazol-3-yl)pyrimidine-2,4-diamine]
  range of PAK binding activities: less than 1 nM (nanomolar) to about 10 μM (micromolar)

## Fc1cnc(NCc2cncc3[nH]cnc23)nc1Nc1cc(C2CC2)[nH]n1 [Compound I-34, N^2-((3H-imidazo[4,5-c]pyridin-7-yl)methyl)-N^4-(5-cyclopropyl-1H-pyrazol-3-yl)-5-fluoropyrimidine-2,4-diamine]
  range of PAK binding activities: less than 1 nM (nanomolar) to about 10 μM (micromolar)

## C[C@H](Nc1nccc(Nc2cc(C3CC3)[nH]n2)n1)c1ncc2[nH]ccc2n1 [Compound I-35, (S)—N^2-(1-(5H-pyrrolo[3,2-d]pyrimidin-2-yl)ethyl)-N^4-(5-cyclopropyl-1H-pyrazol-3-yl)pyrimidine-2,4-diamine]
  range of PAK binding activities: less than 1 nM (nanomolar) to about 10 μM (micromolar)

## C[C@@H](Nc1nccc(Nc2cc(C3CC3)[nH]n2)n1)c1ncc2[nH]ccc2n1 [Compound I-36, (R)—N^2-(1-(5H-pyrrolo[3,2-d]pyrimidin-2-yl)ethyl)-N^4-(5-cyclopropyl-1H-pyrazol-3-yl)pyrimidine-2,4-diamine]
  range of PAK binding activities: less than 1 nM (nanomolar) to about 10 μM (micromolar)
